The list shows a part of the results.
What follows are sequences tested against T1, OsSMF1 (Oryza sativa, UniProt Q6ZLB0 1-436) (assay: protein-binding microarray (RPBM); PBS, 2% BSA, 51.3 ng/ul salmon testes DNA, 50 uM zinc acetate, 200 nM TF, 25 C, 1 h; high values mean tight binding). Conditions: protein: recombinant; tags: N-terminal polyhistidine and DsRed monomer fusion (pET32a); chain copies: 2; label: CyDye5-dUTP incorporated in the synthesized complementary strand; 3' TTTTT single-stranded linker to array surface; dsDNA, one strand shown.
T1 sequence: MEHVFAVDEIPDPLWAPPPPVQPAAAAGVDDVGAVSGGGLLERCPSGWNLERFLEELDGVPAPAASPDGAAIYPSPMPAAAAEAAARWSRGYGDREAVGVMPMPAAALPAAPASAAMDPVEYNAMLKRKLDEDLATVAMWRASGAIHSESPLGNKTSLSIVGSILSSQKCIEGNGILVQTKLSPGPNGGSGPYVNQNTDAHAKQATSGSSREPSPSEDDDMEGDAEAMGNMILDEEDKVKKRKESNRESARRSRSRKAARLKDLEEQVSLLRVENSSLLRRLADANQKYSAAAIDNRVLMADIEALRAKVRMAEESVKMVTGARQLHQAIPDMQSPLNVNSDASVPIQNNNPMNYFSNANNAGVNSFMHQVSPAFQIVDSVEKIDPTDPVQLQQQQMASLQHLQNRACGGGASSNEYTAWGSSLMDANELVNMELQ
Procedure, shortened: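 A custom Agilent array was converted to double-stranded form by primer extension with Cy5-dUTP and blocked with 2% BSA. Protein at 200 nM in PBS with 2% BSA, salmon testes DNA and 50 µM zinc acetate was applied for 1 h at 25 °C, followed by washing. The proteins were polyhistidine–DsRed N-terminal fusions of transcription factors, expressed in E. coli BL21-CodonPlus and Ni–NTA-purified. The binding signal is per-feature fluorescence intensity (arbitrary units) from an Axon 4000B scanner.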
With “CCACAAACAGGCCCTTACCCTCAACCGGCGAGAGGTGCCTCGGAGTCACCTAGTGCAG” the binding signal was 21900 fluorescence intensity (a.u.). With “GGCCCTCGTAGAAGCGGCGGCATCCACGCACACACCACGCCGGAGTCACCTAGTGCAG” the binding signal was 4570 fluorescence intensity (a.u.). “GGTTTCACGCTCACGCGCGCCACGTTTGTCCCCACCCCACCGGAGTCACCTAGTGCAG” was tested, and the binding signal was 6020 fluorescence intensity (a.u.). “TAGCACGTGGTGATGATCACCCAACTGTTCTTCCTGTGTGCGGAGTCACCTAGTGCAG” was tested, and the binding signal was 4330 fluorescence intensity (a.u.). In the case of “CTTGTCGCATCTGAACGTGTCGAGTCACACCTGTGTGTTACGGAGTCACCTAGTGCAG”, the binding signal is reported as 8330 fluorescence intensity (a.u.). For “CTAGTCGCTGACTGACGCTGCCCGCCGTGTGGCCGTGCATCGGAGTCACCTAGTGCAG”, the binding signal was 3700 fluorescence intensity (a.u.). “TATAAATTAATATGTAGTATATCACTTCATAAGTTTAAATCGGAGTCACCTAGTGCAG” was tested, and the binding signal was 39300 fluorescence intensity (a.u.). “TCCTCGCTGAGTCCGATCCTGACCGTCCGATCGTGCAACGCGGAGTCACCTAGTGCAG” was tested, and the binding signal was 3620 fluorescence intensity (a.u.). For “ATAATCCATCTGTTCAAGTAAGGTATCTAAGGAAAGCCAACGGAGTCACCTAGTGCAG”, the binding signal was 5060 fluorescence intensity (a.u.). With “CACCCTTTCCAAATGATGTTGACAAGACTGGATGACACGGCGGAGTCACCTAGTGCAG” the binding signal was 3730 fluorescence intensity (a.u.). “AATTAAATGGCTACATATACGTGGAGGCGAATGGTGGTTTCGGAGTCACCTAGTGCAG” was tested, and the binding signal was 5670 fluorescence intensity (a.u.). “ACCCTCTATCGGGTGCAAATACGCGGAACACCAAGGACCTCGGAGTCACCTAGTGCAG” was tested, and the binding signal was 3400 fluorescence intensity (a.u.). “TCCGTCGCCCTTCCAGCCGCGTTGTCTTGTTCCGATGGTGCGGAGTCACCTAGTGCAG” was tested, and the binding signal was 4200 fluorescence intensity (a.u.). In the case of “TTTCGAAAATTAGGTTTAGCTGAGTTGCCAACTGCTTGACCGGAGTCACCTAGTGCAG”, the binding signal is reported as 3480 fluorescence intensity (a.u.). In the case of “CCAAAACGACCGTCATGCGTCTGTGTGCCACGTCGGCTTGCGGAGTCACCTAGTGCAG”, the binding signal is reported as 23000 fluorescence intensity (a.u.). In the case of “CCATCTCGGCCCAGCCCAATAGCCCATGTCATAGTCATTCCGGAGTCACCTAGTGCAG”, the binding signal is reported as 4080 fluorescence intensity (a.u.). With “CCTTTTATCCGCTCTACGGACGCAGTCCACGTCAGCCGACCGGAGTCACCTAGTGCAG” the binding signal was 39200 fluorescence intensity (a.u.). In the case of “ATAATCTTCAGAGATCTCCTTGCCTGAAGTGTCTTATGTTCGGAGTCACCTAGTGCAG”, the binding signal is reported as 42500 fluorescence intensity (a.u.). “GATCACCCCGACGCATTCTGCTTTCGTCTCCAGAGGTTCGCGGAGTCACCTAGTGCAG” was tested, and the binding signal was 3340 fluorescence intensity (a.u.). “ATTATTAGCTTGGTCACTTGTTTACTAGCTGGAATGCTGGCGGAGTCACCTAGTGCAG” was tested, and the binding signal was 3300 fluorescence intensity (a.u.). With “GGCGGAGGAGGAAAGGGAGAGTTGTGCTGGTGGTAGGAGGCGGAGTCACCTAGTGCAG” the binding signal was 3560 fluorescence intensity (a.u.). For “AATAAATCTCACGGACTTCCATATCTACTCCCGGTTTCTGCGGAGTCACCTAGTGCAG”, the binding signal was 3590 fluorescence intensity (a.u.). With “AGCACTTGTGGAAATGTGACGTATTATCTGTATTTTACTACGGAGTCACCTAGTGCAG” the binding signal was 6090 fluorescence intensity (a.u.). With “CTGCCCTAGTGTGTACTAGTAGTTACTTCATCCGTTTCAGCGGAGTCACCTAGTGCAG” the binding signal was 3180 fluorescence intensity (a.u.). In the case of “TACAGTAATCCACATGTGCTAATGACGGCTTAATTAGGTTCGGAGTCACCTAGTGCAG”, the binding signal is reported as 4110 fluorescence intensity (a.u.). For “GAGCAAGATTATGTGTTAATAAATCTTTGTGCAAGCATTCCGGAGTCACCTAGTGCAG”, the binding signal was 3900 fluorescence intensity (a.u.). With “TGTAATTATTATTTATTTTATTGTGATTTAATTTATCATCCGGAGTCACCTAGTGCAG” the binding signal was 3260 fluorescence intensity (a.u.). In the case of “CCCTTGCATCCACGCCGTCGCCGTCCCCACGTCGCCCACGCGGAGTCACCTAGTGCAG”, the binding signal is reported as 3430 fluorescence intensity (a.u.). In the case of “CGCCTTTCCGCCCTGGCTGCCGCTAGTGTTGTCACCGGAGCGGAGTCACCTAGTGCAG”, the binding signal is reported as 4190 fluorescence intensity (a.u.). In the case of “GCCCGAGAGCGAACGGCCGTCTGCCACGTCATTTTCGCCGCGGAGTCACCTAGTGCAG”, the binding signal is reported as 27300 fluorescence intensity (a.u.). For “AGGGTTGGGGCAGTTGATGTCGATGATCAGTGTGATTCAGCGGAGTCACCTAGTGCAG”, the binding signal was 4340 fluorescence intensity (a.u.). With “CGTAGTGTAATTACATTGTAACTACAATGTAACTTATATGCGGAGTCACCTAGTGCAG” the binding signal was 3160 fluorescence intensity (a.u.). With “ATTATTAATTCAAAACATAGTACACATGTACACGTAGACACGGAGTCACCTAGTGCAG” the binding signal was 7330 fluorescence intensity (a.u.). In the case of “CCTGCCATCATATTTCATGCCTTGCTACGTTTGCTTGATGCGGAGTCACCTAGTGCAG”, the binding signal is reported as 3980 fluorescence intensity (a.u.). For “AAGCCCAATTGTTGGATGGCCCATCCAATTCAGTGCAGTCCGGAGTCACCTAGTGCAG”, the binding signal was 7120 fluorescence intensity (a.u.). With “CAGGTGTGTCCATTGAATTGAATTGAATTGAAACTATTGACGGAGTCACCTAGTGCAG” the binding signal was 60900 fluorescence intensity (a.u.). In the case of “ATATGTTTTGTTCGGTACTATTTTGCTATAACGTGTGACGCGGAGTCACCTAGTGCAG”, the binding signal is reported as 3970 fluorescence intensity (a.u.). With “CAATATGACATTGTATATGTGAATTGAGTGTAACTTGGTTCGGAGTCACCTAGTGCAG” the binding signal was 3290 fluorescence intensity (a.u.). For “AGACAAATAATTCCCTTTGCCATGCCTGTCAGTTAGGGAACGGAGTCACCTAGTGCAG”, the binding signal was 3500 fluorescence intensity (a.u.). “CCGTCGCCGCCAAGCATCGAGCCGCCGGCCACAGCAGCCGCGGAGTCACCTAGTGCAG” was tested, and the binding signal was 42100 fluorescence intensity (a.u.). For “TGCTCGACGCGCTCGACATGTCGGCGCCCAAGGACAGCCCCGGAGTCACCTAGTGCAG”, the binding signal was 11500 fluorescence intensity (a.u.). For “TTCCCCTTCCGCGACTGCGAGCTTCTCCGCCGCCGCCGCCCGGAGTCACCTAGTGCAG”, the binding signal was 3160 fluorescence intensity (a.u.). “TGGGCGAGGAAGATATGAGTGTGAAAGGATGGAGGGCCCACGGAGTCACCTAGTGCAG” was tested, and the binding signal was 32900 fluorescence intensity (a.u.). “AGAAACCATTCCTGGCCACCAACCTCTCTATCCGCCAAAACGGAGTCACCTAGTGCAG” was tested, and the binding signal was 3240 fluorescence intensity (a.u.). With “CTGGATCCGCCTCTACGTACCCGTCATCGGCTCGCATCGCCGGAGTCACCTAGTGCAG” the binding signal was 6740 fluorescence intensity (a.u.). With “AGGAGGCCACGTAGGACGCATGACGTGGTTCGCGGCCAACCGGAGTCACCTAGTGCAG” the binding signal was 15100 fluorescence intensity (a.u.). With “CGTGGTTGATCCGTTGATGTTACGTATGTTGTGCACCGATCGGAGTCACCTAGTGCAG” the binding signal was 3600 fluorescence intensity (a.u.). With “TCCTTCTCCACTTGGACGCACAAACCGCACACCTCGTGCCCGGAGTCACCTAGTGCAG” the binding signal was 8370 fluorescence intensity (a.u.). With “GCAGAGAGAGGGGAGGAGGGTGGGTGGCGGCGGCGGCTAGCGGAGTCACCTAGTGCAG” the binding signal was 6300 fluorescence intensity (a.u.). “GCCCAAAGGTAAAATTTTCATTTTACCAACCGAGATAAAACGGAGTCACCTAGTGCAG” was tested, and the binding signal was 4970 fluorescence intensity (a.u.). In the case of “GGGCATGAGACACAACTAGATCGTCAGATCAATACACACCCGGAGTCACCTAGTGCAG”, the binding signal is reported as 3470 fluorescence intensity (a.u.). “TAGTGTACGAGACCGACCTTACGTGTTGATTATGCTAAGCCGGAGTCACCTAGTGCAG” was tested, and the binding signal was 5150 fluorescence intensity (a.u.). In the case of “GTCTCCTCCATCACGCCGATCATGTCCTGCATCATCAACACGGAGTCACCTAGTGCAG”, the binding signal is reported as 6240 fluorescence intensity (a.u.). With “CAGGTACTTAACTTTAGTCCCTGTCTTTAGACACTAATTTCGGAGTCACCTAGTGCAG” the binding signal was 5100 fluorescence intensity (a.u.).

From PMC7819943, “Rice protein-binding microarrays: a tool to detect cis-acting elements near promoter regions in rice”
